Experimental data: PubChem BioAssay AID493014 (National Center for Advancing Translational Sciences (NCATS), 2011)
Some of the results follow. Shown are side measurements of this screen, not its main read-out; they come without a call. Compounds called inactive in the main read-out are mostly missing here. Words in brackets tell the shape of the fitted curve; partial curves, single points and poor fits give uncertain potencies.

Assay: qHTS Assay to Find Inhibitors of Chronic Active B-Cell Receptor Signaling
Conditions: ABC-DLBCL IkBa-CBG/CBR reporter, luminescence ratio (green luciferase fused to IkBa over red control in TMD8 lymphoma cells), 4 h
How it was run: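 TMD8 human ABC-DLBCL cells with doxycycline-inducible IκBα–green luciferase fusion and unfused red luciferase, in 0.5% FBS medium; compounds up to 46 uM, 4 h at 37C. Green/red luminescence ratio, filter-overlap corrected, fitted to concentration-response curves.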

[1] = measured here: CBR red luminescence, cell number
[2] = measured here: IkBa-CBG green luminescence

Compound	AC50 [1]	AC50 [2]
CCOC(=O)Cn1ccc(NC(=O)c2ccc3c(c2)OCO3)n1	10 µM [falling, partial curve]	
Cc1ccc(C)c(NC(=O)C(=O)NCCc2c[nH]c3ccccc23)c1	7.94 µM [falling, partial curve]	
O=C(OCC(O)CO)c1ccccc1Nc1ccnc2cc(Cl)ccc12 (configuration not stated)	29.1 µM [falling, single point]	9.2 µM [falling, partial curve]
Cn1cc(Cl)c(C(=O)N/N=C/c2ccc3c4c(cccc24)CC3)n1	7.08 µM [falling, partial curve]	
Cc1cc(C)cc(N(CC(=O)Nc2ccc(C)cc2Cl)S(=O)(=O)c2c(C)[nH]c(=O)[nH]c2=O)c1	35.5 µM [falling, single point]	
Cc1nnc(SCC(=O)Nc2cccc([N+](=O)[O-])c2)n1CC1CCCO1 (configuration not stated)	5.01 µM [falling, single point]	
Cc1cccc(Cc2nnc(CCC(=O)N(C)Cc3ccncc3C)o2)c1	11.2 µM [falling, partial curve, poor fit]	
Nc1nc(COc2ccc(F)cc2)nc(N2CCCCC2)n1	3.55 µM [rising, single point]	
COCCn1c(SCC(=O)N2CCCc3ccccc32)nc2c(c1=O)SC(C)C2 (configuration not stated)	10.3 µM [falling, partial curve, poor fit]	
C/C(=C\c1ccccc1)C(=O)Nc1ccc(Cl)cn1	10 µM [falling, partial curve]	
CCOc1ccc2c(C)nc(NC3=NC(C)(C)C=C(C)N3)nc2c1	2.06 µM [rising, partial curve, poor fit]	
CCc1nnc(NC(=O)c2ccc(S(=O)(=O)N3CCCCC3)cc2)s1	3.55 µM [rising, partial curve]	
CN(Cc1nc(-c2ccccn2)no1)S(=O)(=O)c1ccc(Br)cc1	1.46 µM [rising, partial curve, poor fit]	
CCN(CC)c1ccc(/C=N/Nc2nc3ccccc3[nH]2)c(O)c1	23.1 µM [falling, single point]	
COC(=O)C(OC(=O)c1ccc(OC)cc1)C(=O)OC	32.6 µM [rising, single point]	
CC(=O)c1cnc2cc(-c3ccccc3)nn2c1C	2.91 µM [rising, partial curve, poor fit]	
c1ccc(-n2nnnc2-c2cnc(-c3ccncc3)nc2-c2cccs2)cc1	29.1 µM [falling, partial curve, poor fit]	
CSCc1c(C(=O)Nc2ccc3c(c2)OCO3)oc2ccccc12	7.08 µM [falling, partial curve]	
O=C(CCSc1ccccc1)N1CCOCC1	4.11 µM [rising, full curve]	
CCCCNC(=O)c1ccc2c(c1)ncn2C1CCCC1	32.6 µM [falling, single point]	

One compound at a time (already shown).
CCOc1ccc2c(C)nc(NC3=NC(C)(C)C=C(C)N3)nc2c1 is listed with AC50 [1]: 2.06 µM [rising, partial curve, poor fit]
CCc1nnc(NC(=O)c2ccc(S(=O)(=O)N3CCCCC3)cc2)s1 is listed with AC50 [1]: 3.55 µM [rising, partial curve]
Nc1nc(COc2ccc(F)cc2)nc(N2CCCCC2)n1 is listed with AC50 [1]: 3.55 µM [rising, single point]

Later entries.

Compound	AC50 [1]	AC50 [2]
CCN1C(=O)C(CC(=O)Nc2ccc(F)cc2)N(CCc2ccc(OC)cc2)C1=S (configuration not stated)	31.6 µM [falling, single point]	
Fc1cccc(NC(=S)NNc2ccccc2)c1		22.4 µM [falling, single point]
COc1ccccc1NC(=O)C(C)N(C)Cc1ccc(Cl)s1 (configuration not stated)	6.31 µM [rising, full curve, poor fit]	
CCOc1ccc(S(=O)(=O)Nc2nc3ccccc3nc2Nc2ccc(N3CCOCC3)cc2)cc1	1.46 µM [falling, full curve]	
COC(=O)C1CCN(c2nc3ccccc3nc2C(C#N)C(=O)OCC(C)C)CC1 (configuration not stated)	2.51 µM [rising, full curve]	
O=S(=O)(c1ccccc1)c1ccc(N2CCCCCC2)cc1	20 µM [rising, single point]	
Cc1nc2c(-c3ccccc3)c(C)[nH]n2c(=O)c1Cl	11.6 µM [falling, partial curve]	
CCN(CC)c1ccc2cc(-c3nc(-c4ccccc4)no3)c(=O)oc2c1	0.251 µM [falling, full curve, poor fit]	
CCOC(=O)C1CCCN(C(=O)COc2ccccc2O)C1 (configuration not stated)	4.61 µM [rising, partial curve, poor fit]	
COc1ccc(NC(=O)/C=C/c2ccc(OC)c(OC)c2)cn1	8.91 µM [falling, partial curve, poor fit]	
CCCCNc1ncnc2c1cnn2-c1ccc(Cl)cc1	0.231 µM [rising, full curve, poor fit]	
O=c1c2cc(Cl)ccc2nc(-c2ccc([N+](=O)[O-])cc2)n1O	8.91 µM [falling, partial curve]	
Cc1ccc(N(CC(=O)Nc2ccc3c(c2)OCCO3)S(=O)(=O)c2c(C)n[nH]c2C)cc1	2.24 µM [falling, partial curve, poor fit]	
CCN1CCN(c2ccc(S(=O)(=O)N3CCCCC3)cc2NC(=O)Cc2ccccc2)CC1	6.51 µM [rising, partial curve, poor fit]	
O=[N+]([O-])c1ccc(N/N=C/c2cn(-c3ccccc3)nc2-c2ccccc2)cc1	0.501 µM [falling, partial curve, poor fit]	
Cc1ccc(NC(=O)CCCN2C(=O)/C(=C/C=C/c3ccccc3)SC2=S)cc1	3.66 µM [falling, full curve]	
CC(NC(=O)COC(=O)C1=NN(c2ccccc2)C(=O)CC1)c1ccccc1 (configuration not stated)	0.0366 µM [rising, full curve, poor fit]	
OCCN1CCN(CC(O)COc2ccc(-c3ccccc3)cc2)CC1 (configuration not stated)	29.1 µM [rising, single point]	
C=C1C(=O)[C@@]23[C@H](O)C[C@@H]4C(C)(C)CC[C@H](O)[C@]4(C)[C@@H]2C[C@H](O)[C@@H]1[C@H]3O	5.17 µM [falling, full curve]	23.1 µM [rising, single point]
O=C(NCCCN1CCN(c2cccc(Cl)c2)CC1)c1ccc(N2CCCC2=O)cc1	35.5 µM [falling, single point]	
